According to US20170096680:
For part of these data: Where a protein sequence is shown, tags need not be part of it.

Experiments:
Assay in all cases: activity in cells
Details in all cases: protein in cells, only the site is given
[1] = system: T1, A118 recombinase (Listeria monocytogenes bacteriophage A118)
T1 sequence (limits assumed): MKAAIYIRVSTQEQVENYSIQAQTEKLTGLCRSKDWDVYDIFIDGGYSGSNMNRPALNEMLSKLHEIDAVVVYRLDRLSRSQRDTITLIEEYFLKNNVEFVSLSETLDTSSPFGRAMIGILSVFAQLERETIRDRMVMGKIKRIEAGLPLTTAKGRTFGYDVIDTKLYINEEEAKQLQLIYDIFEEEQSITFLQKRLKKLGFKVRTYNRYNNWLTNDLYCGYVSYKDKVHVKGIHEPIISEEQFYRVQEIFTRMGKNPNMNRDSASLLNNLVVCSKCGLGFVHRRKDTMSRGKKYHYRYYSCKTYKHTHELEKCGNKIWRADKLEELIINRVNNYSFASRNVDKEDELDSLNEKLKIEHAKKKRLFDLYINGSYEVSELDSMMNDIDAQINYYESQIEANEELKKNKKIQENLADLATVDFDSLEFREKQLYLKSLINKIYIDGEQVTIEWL

[2] = system: T2, TP901 recombinase (TP901-1 integrase)
T2 sequence (limits assumed): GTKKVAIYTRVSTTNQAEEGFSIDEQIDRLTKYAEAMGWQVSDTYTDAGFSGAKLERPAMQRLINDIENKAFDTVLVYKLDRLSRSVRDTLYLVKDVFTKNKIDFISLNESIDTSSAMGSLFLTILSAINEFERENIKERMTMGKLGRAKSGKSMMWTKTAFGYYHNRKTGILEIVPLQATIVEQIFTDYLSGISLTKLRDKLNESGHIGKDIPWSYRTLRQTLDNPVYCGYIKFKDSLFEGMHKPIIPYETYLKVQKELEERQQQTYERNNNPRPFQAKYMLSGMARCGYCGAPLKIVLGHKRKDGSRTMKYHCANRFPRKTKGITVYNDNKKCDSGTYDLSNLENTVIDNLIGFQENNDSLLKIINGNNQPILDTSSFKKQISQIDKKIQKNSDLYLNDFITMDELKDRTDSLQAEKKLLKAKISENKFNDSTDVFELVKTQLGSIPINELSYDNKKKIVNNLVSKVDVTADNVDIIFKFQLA

[3] = system: BxbI recombinase (Bxb1 integrase)

In the case of “AACTTTTCGGATCAAGCTATGAAAAACGCAAAGAGGGAACTAAACACTT (double strand) [A118B-AA attB]”, the “activity on this sequence” value ([1]; recombines with attP-AA, orthogonal to GG pair, variant of A118B-GG attB) is reported as “active”.

For “AACTTTTCGGATCAAGCTATGAAGGACGCAAAGAGGGAACTAAACACTT (double strand) [A118B-GG attB]”, the “activity on this sequence” value ([1]; recombines with attP-GG) was “active”.

“ATGCCAACACAATTAACATCAGAATCAAGGTAAATGCTTTTTGCTTTTTTTGC (double strand) [TP901B-AG attB]” was tested, and the “activity on this sequence” value ([2]; recombines with attP-AG, at least 97% of cells in expected state (5-state RSM), variant of TP901B-TC attB) was “active”.

With “ATGCCAACACAATTAACATCTCAATCAAGGTAAATGCTTTTTGCTTTTTTTGC (double strand) [TP901B-TC attB]” the “activity on this sequence” value ([2]; recombines with attP-TC, rare recombination between mismatched-dinucleotide TP901 sites seen) was “active”.

For “CGGCCGGCTTGTCGACGACGGCGCACTCCGTCGTCAGGATCATCCGGGC (double strand) [BxbIB-CA attB]”, the “activity on this sequence” value ([3]; recombines with attP-CA, orthogonal to GT pair, variant of BxbIB-GT attB) was “active”.

“CGGCCGGCTTGTCGACGACGGCGGTCTCCGTCGTCAGGATCATCCGGGC (double strand) [BxbIB-GT attB]” was tested, and the “activity on this sequence” value ([3]; recombines with attP-GT in 3-input 16-state register, 88-100% of cells in expected state) was “active”.

For “GCGAGTTTTTATTTCGTTTATTAGAATTAAGGTAACTAAAAAACTCCTTT (double strand) [TP901P-AG attP]”, the “activity on this sequence” value ([2]; recombines with attB-AG, at least 97% of cells in expected state (5-state RSM), variant of TP901P-TC attP) was “active”.

“GCGAGTTTTTATTTCGTTTATTTCAATTAAGGTAACTAAAAAACTCCTTT (double strand) [TP901P-TC attP]” was tested, and the “activity on this sequence” value ([2]; recombines with attB-TC, rare recombination between mismatched-dinucleotide TP901 sites seen) was “active”.

For “GTCGTGGTTTGTCTGGTCAACCACCGCGCACTCAGTGGTGTACGGTACAAACCCCGAC (double strand) [BxbIP-CA attP]”, the “activity on this sequence” value ([3]; recombines with attB-CA, orthogonal to GT pair, variant of BxbIP-GT attP) was “active”.

With “GTCGTGGTTTGTCTGGTCAACCACCGCGGTCTCAGTGGTGTACGGTACAAACCCCGAC (double strand) [BxbIP-GT attP]” the “activity on this sequence” value ([3]; recombines with attB-GT in 3-input 16-state register) was “active”.

For “TTAGTTCCTCGTTTTCTCTCGTTAAAAGAAGAAGAAACGAGAAACTAAA (double strand) [A118P-AA attP]”, the “activity on this sequence” value ([1]; recombines with attB-AA, orthogonal to GG pair, variant of A118P-GG attP) was “active”.

For “TTAGTTCCTCGTTTTCTCTCGTTGGAAGAAGAAGAAACGAGAAACTAAA (double strand) [A118P-GG attP]”, the “activity on this sequence” value ([1]; recombines with attB-GG) was “active”.
